Results are given in words; binding and its absence hold for the method and conditions named. In cells and extracts the contact can be indirect. Binding calls can cover weak binding; strength is not graded here.
T1: endogenous Cdc25A (human (endogenous in HEK 293T)) (UniProt P30304)
T1 sequence: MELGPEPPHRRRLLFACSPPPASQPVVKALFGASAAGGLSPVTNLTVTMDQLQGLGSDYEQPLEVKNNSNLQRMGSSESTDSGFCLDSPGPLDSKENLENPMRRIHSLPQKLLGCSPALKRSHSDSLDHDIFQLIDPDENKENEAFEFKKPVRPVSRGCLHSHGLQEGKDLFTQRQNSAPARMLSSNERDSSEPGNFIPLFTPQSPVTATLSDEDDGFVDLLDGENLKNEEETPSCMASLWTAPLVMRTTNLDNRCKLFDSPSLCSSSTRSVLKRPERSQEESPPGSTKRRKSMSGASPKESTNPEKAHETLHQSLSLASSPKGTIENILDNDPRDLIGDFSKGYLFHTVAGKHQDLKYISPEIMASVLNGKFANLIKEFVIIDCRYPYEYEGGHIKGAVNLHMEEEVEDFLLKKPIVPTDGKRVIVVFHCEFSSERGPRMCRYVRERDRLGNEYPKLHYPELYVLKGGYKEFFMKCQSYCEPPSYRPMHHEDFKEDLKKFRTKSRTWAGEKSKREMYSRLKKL


Experiments:
[1] = target: T1, endogenous Cdc25A (human (endogenous in HEK 293T)); test: co-IP; endogenous proteins, HEK 293T lysates in RIPA buffer with DNase I; anti-Cdc25A, anti-ARD1 or anti-HDAC11 with Protein G Plus/Protein A beads, 18 h at 4°C; washes with 200 μg/ml ethidium bromide; normal IgG as control
[2] = target: endogenous ARD1 (human (endogenous in HEK 293T)); test: as above

| binding [1] | binding [2] | Molecule |
| --- | --- | --- |
| binds |  | endogenous ARD1 (human (endogenous in HEK 293T)) (enzyme) |
|  | binds | endogenous Cdc25A (enzyme, UniProt P30304 1-524) MELGPEPPHRRRLLFACSPPPASQPVVKALFGASAAGGLSPVTNLTVTMDQLQGLGSDYEQPLEVKNNSNLQRMGSSESTDSGFCLDSPGPLDSKENLENPMRRIHSLPQKLLGCSPALKRSHSDSLDHDIFQLIDPDENKENEAFEFKKPVRPVSRGCLHSHGLQEGKDLFTQRQNSAPARMLSSNERDSSEPGNFIPLFTPQSPVTATLSDEDDGFVDLLDGENLKNEEETPSCMASLWTAPLVMRTTNLDNRCKLFDSPSLCSSSTRSVLKRPERSQEESPPGSTKRRKSMSGASPKESTNPEKAHETLHQSLSLASSPKGTIENILDNDPRDLIGDFSKGYLFHTVAGKHQDLKYISPEIMASVLNGKFANLIKEFVIIDCRYPYEYEGGHIKGAVNLHMEEEVEDFLLKKPIVPTDGKRVIVVFHCEFSSERGPRMCRYVRERDRLGNEYPKLHYPELYVLKGGYKEFFMKCQSYCEPPSYRPMHHEDFKEDLKKFRTKSRTWAGEKSKREMYSRLKKL |

Reference: publication PMC4991465
